Results: paper PMC4938514
These are yes or no findings as the source states them, for the method shown. Binding seen in cells or lysates may run through a third protein. Some binding calls cover weakened binding; strength is not graded here. For part of these data: Where a sequence is shown, tags or fusion partners need not be part of it.

Sequences of proteins named here, by UniProt entry; tags and fusion partners are left off. Residues count along the entry.
UniProt P00520: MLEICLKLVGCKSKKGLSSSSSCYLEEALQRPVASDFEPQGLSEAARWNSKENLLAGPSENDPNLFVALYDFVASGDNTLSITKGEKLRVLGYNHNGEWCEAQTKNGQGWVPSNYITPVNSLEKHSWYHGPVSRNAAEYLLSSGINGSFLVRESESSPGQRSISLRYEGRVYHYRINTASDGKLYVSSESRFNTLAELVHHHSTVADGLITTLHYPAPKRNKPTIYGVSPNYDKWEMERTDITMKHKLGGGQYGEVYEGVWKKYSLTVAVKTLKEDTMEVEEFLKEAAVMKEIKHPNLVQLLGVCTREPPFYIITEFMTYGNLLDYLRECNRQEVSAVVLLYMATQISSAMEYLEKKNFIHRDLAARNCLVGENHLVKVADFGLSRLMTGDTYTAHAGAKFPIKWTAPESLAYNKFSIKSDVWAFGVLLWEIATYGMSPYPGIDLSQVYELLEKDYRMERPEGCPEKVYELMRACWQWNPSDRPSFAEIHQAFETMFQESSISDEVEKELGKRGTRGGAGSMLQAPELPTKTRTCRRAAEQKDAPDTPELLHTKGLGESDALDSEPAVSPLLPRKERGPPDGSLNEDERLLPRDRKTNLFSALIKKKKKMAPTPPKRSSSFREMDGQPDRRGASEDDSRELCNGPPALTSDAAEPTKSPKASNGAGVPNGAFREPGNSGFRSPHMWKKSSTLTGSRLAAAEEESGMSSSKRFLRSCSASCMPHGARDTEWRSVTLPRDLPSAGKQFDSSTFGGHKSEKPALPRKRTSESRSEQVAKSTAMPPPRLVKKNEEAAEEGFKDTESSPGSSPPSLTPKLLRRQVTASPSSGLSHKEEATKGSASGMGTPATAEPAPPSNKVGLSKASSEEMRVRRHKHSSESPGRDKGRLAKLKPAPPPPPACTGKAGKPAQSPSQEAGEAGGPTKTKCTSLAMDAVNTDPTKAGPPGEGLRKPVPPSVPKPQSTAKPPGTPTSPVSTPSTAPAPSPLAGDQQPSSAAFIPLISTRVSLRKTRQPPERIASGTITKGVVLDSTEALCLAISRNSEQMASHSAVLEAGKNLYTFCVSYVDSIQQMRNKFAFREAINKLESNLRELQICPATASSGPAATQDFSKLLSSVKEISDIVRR
UniProt P70207, residues 35-1894: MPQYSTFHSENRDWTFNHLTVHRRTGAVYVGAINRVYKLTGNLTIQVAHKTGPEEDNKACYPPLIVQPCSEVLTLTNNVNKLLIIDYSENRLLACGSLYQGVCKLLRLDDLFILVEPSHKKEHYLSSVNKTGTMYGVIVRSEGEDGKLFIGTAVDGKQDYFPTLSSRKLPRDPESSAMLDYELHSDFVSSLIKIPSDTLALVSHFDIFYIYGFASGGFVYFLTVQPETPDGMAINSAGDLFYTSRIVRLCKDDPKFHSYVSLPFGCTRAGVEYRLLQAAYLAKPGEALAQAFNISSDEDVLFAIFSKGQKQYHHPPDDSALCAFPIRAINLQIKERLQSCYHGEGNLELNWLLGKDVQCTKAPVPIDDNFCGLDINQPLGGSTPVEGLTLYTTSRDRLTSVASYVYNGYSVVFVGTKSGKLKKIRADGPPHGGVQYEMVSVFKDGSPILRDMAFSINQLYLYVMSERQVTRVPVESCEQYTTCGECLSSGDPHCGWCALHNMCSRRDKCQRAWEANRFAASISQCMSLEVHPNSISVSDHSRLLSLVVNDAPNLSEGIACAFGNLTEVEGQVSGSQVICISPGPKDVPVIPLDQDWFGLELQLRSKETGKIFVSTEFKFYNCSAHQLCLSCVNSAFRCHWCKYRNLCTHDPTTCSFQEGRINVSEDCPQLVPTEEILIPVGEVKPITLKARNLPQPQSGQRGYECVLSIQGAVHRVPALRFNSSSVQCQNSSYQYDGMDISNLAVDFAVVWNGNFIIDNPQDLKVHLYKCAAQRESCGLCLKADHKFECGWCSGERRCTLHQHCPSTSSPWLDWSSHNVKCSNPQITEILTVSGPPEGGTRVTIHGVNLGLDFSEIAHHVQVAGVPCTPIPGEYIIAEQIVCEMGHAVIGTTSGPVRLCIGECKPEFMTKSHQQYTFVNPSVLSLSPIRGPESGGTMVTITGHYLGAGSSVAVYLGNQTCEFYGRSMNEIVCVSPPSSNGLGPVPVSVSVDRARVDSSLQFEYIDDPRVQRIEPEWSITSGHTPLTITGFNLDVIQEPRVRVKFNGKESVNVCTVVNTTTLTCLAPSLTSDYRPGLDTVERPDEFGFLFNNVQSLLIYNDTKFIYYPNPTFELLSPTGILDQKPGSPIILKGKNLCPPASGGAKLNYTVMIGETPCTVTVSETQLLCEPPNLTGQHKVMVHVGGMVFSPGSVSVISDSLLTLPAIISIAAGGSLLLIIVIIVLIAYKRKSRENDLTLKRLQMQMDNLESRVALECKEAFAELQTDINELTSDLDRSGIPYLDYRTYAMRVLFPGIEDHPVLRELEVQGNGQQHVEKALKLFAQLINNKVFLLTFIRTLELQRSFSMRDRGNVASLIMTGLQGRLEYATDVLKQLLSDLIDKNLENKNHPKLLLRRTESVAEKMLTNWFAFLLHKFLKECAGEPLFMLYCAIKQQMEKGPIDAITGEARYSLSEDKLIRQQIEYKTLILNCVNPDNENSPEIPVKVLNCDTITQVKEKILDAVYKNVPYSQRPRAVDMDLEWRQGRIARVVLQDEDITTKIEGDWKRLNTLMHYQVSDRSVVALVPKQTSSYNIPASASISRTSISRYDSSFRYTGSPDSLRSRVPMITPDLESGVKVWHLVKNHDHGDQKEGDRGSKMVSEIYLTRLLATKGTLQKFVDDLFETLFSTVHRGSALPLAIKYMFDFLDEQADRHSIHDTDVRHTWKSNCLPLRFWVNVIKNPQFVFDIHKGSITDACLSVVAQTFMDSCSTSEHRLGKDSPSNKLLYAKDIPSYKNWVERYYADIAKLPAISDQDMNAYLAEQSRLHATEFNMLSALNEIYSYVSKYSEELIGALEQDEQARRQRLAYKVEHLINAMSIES
UniProt Q03173: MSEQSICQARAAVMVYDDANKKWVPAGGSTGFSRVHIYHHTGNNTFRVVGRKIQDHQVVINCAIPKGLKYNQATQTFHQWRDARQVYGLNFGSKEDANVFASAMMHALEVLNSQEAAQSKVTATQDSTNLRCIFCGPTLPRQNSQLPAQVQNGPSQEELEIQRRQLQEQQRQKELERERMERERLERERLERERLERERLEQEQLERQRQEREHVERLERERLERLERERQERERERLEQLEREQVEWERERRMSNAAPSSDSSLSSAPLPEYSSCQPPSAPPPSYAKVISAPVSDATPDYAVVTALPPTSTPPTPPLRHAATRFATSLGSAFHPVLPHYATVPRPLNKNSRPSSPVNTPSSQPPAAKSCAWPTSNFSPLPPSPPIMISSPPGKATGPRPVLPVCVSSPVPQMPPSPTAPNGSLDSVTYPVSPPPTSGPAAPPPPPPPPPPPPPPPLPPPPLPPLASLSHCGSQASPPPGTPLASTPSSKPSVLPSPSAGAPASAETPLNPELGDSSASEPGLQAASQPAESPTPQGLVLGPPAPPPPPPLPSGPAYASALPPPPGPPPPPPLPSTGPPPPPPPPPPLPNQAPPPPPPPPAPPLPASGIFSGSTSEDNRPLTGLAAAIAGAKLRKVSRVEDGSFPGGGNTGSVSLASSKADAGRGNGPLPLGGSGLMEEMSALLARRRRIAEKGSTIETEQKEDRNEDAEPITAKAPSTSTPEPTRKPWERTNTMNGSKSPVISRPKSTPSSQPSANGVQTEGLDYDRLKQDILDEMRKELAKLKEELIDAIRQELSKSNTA

Assays:
[1] = target: T1, endogenous Sema6A of mouse cerebellum (mouse (endogenous in cerebellum)) (UniProt O35464); experiment: co-IP; endogenous proteins; extracts of P6 mouse cerebellum; IP with anti-Sema6A antibodies
T1 sequence: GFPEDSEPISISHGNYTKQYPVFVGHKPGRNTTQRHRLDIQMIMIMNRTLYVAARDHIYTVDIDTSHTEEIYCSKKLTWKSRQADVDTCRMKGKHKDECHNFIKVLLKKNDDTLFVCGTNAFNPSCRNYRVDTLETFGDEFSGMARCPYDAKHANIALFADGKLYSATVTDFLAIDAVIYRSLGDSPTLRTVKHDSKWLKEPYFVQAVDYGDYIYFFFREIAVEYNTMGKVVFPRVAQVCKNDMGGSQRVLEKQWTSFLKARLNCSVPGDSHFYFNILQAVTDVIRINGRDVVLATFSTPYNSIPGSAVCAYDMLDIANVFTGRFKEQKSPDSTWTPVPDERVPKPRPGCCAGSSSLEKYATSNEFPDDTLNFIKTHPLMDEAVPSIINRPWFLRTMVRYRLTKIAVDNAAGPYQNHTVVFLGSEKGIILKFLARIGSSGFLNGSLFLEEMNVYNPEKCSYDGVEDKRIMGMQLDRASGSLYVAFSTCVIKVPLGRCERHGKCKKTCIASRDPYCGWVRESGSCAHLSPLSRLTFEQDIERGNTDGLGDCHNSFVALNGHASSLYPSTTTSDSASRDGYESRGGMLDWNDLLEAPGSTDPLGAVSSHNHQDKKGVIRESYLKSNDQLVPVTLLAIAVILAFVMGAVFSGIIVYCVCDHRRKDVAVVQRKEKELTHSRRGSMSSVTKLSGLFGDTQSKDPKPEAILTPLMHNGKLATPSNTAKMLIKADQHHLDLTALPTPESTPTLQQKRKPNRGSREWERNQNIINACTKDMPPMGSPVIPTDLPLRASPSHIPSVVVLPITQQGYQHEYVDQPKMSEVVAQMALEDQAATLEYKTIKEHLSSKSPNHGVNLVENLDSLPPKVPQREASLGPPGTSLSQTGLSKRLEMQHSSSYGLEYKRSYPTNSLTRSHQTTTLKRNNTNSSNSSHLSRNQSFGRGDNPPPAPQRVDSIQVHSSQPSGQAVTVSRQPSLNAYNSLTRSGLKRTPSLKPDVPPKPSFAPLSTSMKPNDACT

[2] = target: T2, Sema6A-FL (full-length Semaphorin-6A), as transfected for the in situ binding and the Sema6A/PlxnA2 co-immunoprecipitations (UniProt O35464); experiment: co-IP; co-transfected COS-7 cells lysed in NP-40 buffer (10mM HEPES pH 7.5; 100mM NaCl, 2mM EDTA, 0.5% NP-40); 2h at 4°C with anti-PlexinA2 or anti-Sema6A; protein A/G sepharose; blots with anti-PlxnA2 and anti-Sema6A
T2 sequence: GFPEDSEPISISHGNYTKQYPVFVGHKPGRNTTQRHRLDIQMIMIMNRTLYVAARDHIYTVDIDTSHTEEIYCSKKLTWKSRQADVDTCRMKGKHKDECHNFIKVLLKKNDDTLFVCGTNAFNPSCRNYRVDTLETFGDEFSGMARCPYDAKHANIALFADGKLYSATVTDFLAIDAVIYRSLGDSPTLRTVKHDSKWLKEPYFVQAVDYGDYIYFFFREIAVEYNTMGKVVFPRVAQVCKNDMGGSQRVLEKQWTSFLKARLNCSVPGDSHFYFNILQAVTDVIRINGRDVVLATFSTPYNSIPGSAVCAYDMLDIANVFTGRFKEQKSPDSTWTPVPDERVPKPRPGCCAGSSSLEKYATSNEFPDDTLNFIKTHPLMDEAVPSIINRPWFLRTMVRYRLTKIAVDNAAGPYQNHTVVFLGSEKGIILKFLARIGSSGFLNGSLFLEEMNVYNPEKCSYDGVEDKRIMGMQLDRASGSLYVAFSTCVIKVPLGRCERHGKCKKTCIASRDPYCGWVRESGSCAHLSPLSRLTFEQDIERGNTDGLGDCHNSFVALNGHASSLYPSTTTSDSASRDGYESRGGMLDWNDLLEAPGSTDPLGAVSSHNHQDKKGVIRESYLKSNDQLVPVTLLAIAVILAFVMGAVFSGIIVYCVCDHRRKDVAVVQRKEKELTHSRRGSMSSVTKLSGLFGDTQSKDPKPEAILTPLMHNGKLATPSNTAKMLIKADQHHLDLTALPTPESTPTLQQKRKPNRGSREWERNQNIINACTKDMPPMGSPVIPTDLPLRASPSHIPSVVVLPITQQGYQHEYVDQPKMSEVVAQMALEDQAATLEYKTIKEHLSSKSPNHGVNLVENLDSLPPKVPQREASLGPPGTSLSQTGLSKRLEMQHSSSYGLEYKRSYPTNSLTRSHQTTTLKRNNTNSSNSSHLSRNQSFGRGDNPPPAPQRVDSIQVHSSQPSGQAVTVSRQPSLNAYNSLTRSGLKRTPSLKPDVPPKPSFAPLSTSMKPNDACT

myc-Sema6A-FL = target: T3, myc-Sema6A-FL (UniProt O35464); experiment: co-IP; co-transfected COS-7 cells, serum-starved 16h, stimulated with conditioned medium with PlexinA2-EC for 20 min at 37°C (untreated cells alongside; with or without co-transfected PlxnA2), lysed; 2h at 4°C with anti-myc or anti-V5
T3 sequence: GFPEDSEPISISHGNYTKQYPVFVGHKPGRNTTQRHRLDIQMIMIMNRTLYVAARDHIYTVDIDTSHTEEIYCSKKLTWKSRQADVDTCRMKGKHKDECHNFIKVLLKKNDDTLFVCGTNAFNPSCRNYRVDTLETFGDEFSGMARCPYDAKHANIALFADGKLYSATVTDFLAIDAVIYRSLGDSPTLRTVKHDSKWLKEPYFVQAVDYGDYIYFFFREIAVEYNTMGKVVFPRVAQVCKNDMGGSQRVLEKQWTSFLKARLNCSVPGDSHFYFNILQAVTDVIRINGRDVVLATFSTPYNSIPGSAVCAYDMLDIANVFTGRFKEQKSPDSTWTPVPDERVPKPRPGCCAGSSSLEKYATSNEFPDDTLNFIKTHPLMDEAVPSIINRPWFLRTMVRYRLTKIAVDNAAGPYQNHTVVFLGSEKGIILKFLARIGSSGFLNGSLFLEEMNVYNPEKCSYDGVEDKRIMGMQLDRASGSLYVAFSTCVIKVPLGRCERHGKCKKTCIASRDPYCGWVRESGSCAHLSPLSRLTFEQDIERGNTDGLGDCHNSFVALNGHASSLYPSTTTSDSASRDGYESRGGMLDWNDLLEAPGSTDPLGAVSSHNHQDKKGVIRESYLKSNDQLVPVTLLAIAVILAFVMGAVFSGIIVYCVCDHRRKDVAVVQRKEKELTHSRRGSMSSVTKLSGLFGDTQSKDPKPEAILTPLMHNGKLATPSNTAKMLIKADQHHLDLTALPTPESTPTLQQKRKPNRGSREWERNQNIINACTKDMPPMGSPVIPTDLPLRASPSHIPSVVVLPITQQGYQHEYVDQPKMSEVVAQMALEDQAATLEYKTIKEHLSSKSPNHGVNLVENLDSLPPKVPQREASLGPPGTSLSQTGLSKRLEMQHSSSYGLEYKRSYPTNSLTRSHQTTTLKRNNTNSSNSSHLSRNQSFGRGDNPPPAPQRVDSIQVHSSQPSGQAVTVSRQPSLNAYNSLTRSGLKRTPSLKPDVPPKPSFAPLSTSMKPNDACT

Substance: endogenous Abl of mouse cerebellum (from UniProt P00520 1-1123) (enzyme)
- binding [1]: binds

Substance: PlxnA2-FL (full-length Plexin-A2) (from UniProt P70207 35-1894) (receptor)
- binding [2]: binds

Substance: Full-length V5-tagged Mena (Mena-V5) (from UniProt Q03173 1-802)
- binding (myc-Sema6A-FL): binds
